In publication PMC11549447:
No constants are given. Whether binding was seen depends on the method and setting. In cells and extracts the contact can be indirect. Some entries that bind do so weakly or less than the wild type. For some assays here: Sequences can lack the tags named with a protein.

Sequences of proteins named here, by UniProt entry; tags and fusion partners are left off.
UniProt P04150: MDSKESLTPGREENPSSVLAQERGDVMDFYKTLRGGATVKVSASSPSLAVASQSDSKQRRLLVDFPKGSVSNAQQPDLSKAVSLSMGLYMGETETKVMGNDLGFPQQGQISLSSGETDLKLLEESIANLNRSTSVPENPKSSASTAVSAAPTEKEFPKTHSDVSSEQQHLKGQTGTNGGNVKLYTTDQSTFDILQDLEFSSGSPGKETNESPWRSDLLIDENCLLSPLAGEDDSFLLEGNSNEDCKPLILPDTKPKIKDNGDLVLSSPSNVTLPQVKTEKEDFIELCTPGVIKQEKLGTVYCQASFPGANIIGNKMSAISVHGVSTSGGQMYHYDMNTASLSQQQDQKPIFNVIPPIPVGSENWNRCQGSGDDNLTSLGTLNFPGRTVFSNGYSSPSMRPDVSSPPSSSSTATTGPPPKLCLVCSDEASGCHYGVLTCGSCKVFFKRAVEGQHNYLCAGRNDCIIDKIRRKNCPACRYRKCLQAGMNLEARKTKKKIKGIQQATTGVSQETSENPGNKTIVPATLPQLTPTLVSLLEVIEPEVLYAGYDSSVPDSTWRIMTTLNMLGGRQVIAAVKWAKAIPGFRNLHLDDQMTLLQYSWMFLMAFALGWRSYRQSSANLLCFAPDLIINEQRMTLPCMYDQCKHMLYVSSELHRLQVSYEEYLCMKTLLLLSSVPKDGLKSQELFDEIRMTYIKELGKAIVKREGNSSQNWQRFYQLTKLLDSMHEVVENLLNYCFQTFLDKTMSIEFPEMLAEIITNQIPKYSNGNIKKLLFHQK

T1: PP5-FLAG-K430R, non-SUMOylatable mutant (UniProt P53041)
T1 sequence: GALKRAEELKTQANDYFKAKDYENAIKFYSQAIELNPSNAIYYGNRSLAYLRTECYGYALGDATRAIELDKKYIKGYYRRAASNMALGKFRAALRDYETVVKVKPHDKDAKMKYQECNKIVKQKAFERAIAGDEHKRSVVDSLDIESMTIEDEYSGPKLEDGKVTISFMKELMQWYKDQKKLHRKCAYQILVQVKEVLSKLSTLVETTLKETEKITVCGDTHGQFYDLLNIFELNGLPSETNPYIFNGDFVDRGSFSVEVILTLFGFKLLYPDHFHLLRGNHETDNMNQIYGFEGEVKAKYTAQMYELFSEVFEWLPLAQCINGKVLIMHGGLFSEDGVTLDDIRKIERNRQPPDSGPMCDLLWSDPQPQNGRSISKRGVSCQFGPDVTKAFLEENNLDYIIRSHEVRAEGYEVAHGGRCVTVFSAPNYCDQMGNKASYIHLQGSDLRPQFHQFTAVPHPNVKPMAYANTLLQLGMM

T2: serine/threonine protein phosphatase 5 (PP5), wild-type PP5-FLAG (UniProt P53041)
T2 sequence: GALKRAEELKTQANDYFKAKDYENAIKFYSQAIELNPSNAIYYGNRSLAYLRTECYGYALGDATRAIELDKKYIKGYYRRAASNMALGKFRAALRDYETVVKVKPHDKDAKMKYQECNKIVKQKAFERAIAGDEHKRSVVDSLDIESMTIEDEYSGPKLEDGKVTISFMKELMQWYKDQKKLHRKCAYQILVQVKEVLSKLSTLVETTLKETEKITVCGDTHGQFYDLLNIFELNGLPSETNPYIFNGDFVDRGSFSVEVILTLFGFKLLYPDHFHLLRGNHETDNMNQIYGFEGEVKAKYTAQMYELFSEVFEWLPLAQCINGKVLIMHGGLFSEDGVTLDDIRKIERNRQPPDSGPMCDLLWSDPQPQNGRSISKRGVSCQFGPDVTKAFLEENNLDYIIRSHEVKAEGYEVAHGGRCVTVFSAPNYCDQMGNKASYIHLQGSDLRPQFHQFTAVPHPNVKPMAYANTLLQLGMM

T3: PP5-FLAG-K430A (UniProt P53041)
T3 sequence: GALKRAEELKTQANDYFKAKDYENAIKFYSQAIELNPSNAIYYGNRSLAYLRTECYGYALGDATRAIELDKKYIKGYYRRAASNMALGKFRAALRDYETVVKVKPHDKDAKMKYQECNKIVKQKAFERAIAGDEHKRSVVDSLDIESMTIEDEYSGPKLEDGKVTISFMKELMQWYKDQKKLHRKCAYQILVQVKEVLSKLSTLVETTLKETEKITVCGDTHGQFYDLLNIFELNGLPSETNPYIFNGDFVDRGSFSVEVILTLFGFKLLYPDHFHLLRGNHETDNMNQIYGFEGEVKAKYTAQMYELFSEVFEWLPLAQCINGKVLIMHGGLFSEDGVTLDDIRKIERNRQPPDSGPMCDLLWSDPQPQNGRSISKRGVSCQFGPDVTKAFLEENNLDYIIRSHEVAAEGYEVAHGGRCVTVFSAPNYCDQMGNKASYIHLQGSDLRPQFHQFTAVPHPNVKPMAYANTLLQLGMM

T4: PP5-FLAG-K430Q (UniProt P53041)
T4 sequence: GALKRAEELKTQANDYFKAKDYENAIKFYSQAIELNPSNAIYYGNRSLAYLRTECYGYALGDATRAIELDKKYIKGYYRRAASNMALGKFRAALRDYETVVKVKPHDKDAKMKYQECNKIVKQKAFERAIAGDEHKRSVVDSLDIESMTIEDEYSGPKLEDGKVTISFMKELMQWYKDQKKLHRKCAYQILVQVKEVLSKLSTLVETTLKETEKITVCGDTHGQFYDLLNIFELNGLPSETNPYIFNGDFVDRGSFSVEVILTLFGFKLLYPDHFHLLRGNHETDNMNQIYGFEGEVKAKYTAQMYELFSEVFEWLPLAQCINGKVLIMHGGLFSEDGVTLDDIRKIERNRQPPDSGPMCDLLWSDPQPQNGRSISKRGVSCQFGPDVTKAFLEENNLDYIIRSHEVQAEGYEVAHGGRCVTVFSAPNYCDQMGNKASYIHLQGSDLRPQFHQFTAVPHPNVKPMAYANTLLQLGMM


Assays:
[1] = target: T1, PP5-FLAG-K430R, non-SUMOylatable mutant; assay: co-IP; anti-FLAG agarose IP of PP5-FLAG (WT or mutants) from lysate of transfected HEK293 cells, 2 h at 4 °C; washes in 20 mM Tris-HCl pH 7.4, 100 mM NaCl, 1 mM MgCl2, 0.1% NP40; endogenous partners by immunoblot; some panels with CK1δ-myc co-expressed or 2 µM IC261 for 16 h
[2] = target: T1, PP5-FLAG-K430R, non-SUMOylatable mutant; assay: co-IP; sequential double IP from HEK293 cells transfected with PP5-FLAG (WT or K430R) and GR: FLAG IP (IP1), elution with 3x FLAG peptide, second IP (IP2) with GR antibody-conjugated agarose; immunoblot
[3] = target: T2, serine/threonine protein phosphatase 5 (PP5), wild-type PP5-FLAG; assay: as above
[4] = target: T3, PP5-FLAG-K430A; assay: co-IP; anti-FLAG agarose IP of PP5-FLAG (WT or mutants) from lysate of transfected HEK293 cells, 2 h at 4 °C; washes in 20 mM Tris-HCl pH 7.4, 100 mM NaCl, 1 mM MgCl2, 0.1% NP40; endogenous partners by immunoblot; some panels with CK1δ-myc co-expressed or 2 µM IC261 for 16 h
[5] = target: T4, PP5-FLAG-K430Q; assay: as above
[6] = target: phospho-S211-glucocorticoid receptor, endogenous (human (endogenous in HEK293)) (UniProt P04150); assay: co-IP; endogenous IP from HEK293 lysate with anti-GR-pS211 (IgG as control), protein G agarose; immunoblot

binding [1] | binding [4] | binding [5] | Molecule | other results
binds |  |  | phospho-S211-glucocorticoid receptor, endogenous (from UniProt P04150 1-777) | 
 |  |  | glucocorticoid receptor (GR), transfected (from UniProt P04150 1-777) | binding [2]: binds; binding [3]: binds
binds |  |  | phospho-S13-Cdc37, endogenous (protein, UniProt Q16543 1-378, phosphoserine at 13) MVDYSVWDHIEVSDDEDETHPNIDTASLFRWRHQARVERMEQFQKEKEELDRGCRECKRKVAECQRKLKELEVAEGGKAELERLQAEAQQLRKEERSWEQKLEEMRKKEKSMPWNVDTLSKDGFSKSMVNTKPEKTEEDSEEVREQKHKTFVEKYEKQIKHFGMLRRWDDSQKYLSDNVHLVCEETANYLVIWCIDLEVEEKCALMEQVAHQTIVMQFILELAKSLKVDPRACFRQFFTKIKTADRQYMEGFNDELEAFKERVRGRAKLRIEKAMKEYEEEERKKRLGPGGLDPVEVYESLPEELQKCFDVKDVQMLQDAISKMDPTDAKYHMQRCIDSGLWVPNSKASEAKEGEEAGPGDPLLEAVPKTGDEKDVSV | 
binds | binds | binds | Cdc37, endogenous (protein, UniProt Q16543 1-378) MVDYSVWDHIEVSDDEDETHPNIDTASLFRWRHQARVERMEQFQKEKEELDRGCRECKRKVAECQRKLKELEVAEGGKAELERLQAEAQQLRKEERSWEQKLEEMRKKEKSMPWNVDTLSKDGFSKSMVNTKPEKTEEDSEEVREQKHKTFVEKYEKQIKHFGMLRRWDDSQKYLSDNVHLVCEETANYLVIWCIDLEVEEKCALMEQVAHQTIVMQFILELAKSLKVDPRACFRQFFTKIKTADRQYMEGFNDELEAFKERVRGRAKLRIEKAMKEYEEEERKKRLGPGGLDPVEVYESLPEELQKCFDVKDVQMLQDAISKMDPTDAKYHMQRCIDSGLWVPNSKASEAKEGEEAGPGDPLLEAVPKTGDEKDVSV | 
 |  |  | PP5, endogenous (enzyme, UniProt P53041 1-499) MAMAEGERTECAEPPRDEPPADGALKRAEELKTQANDYFKAKDYENAIKFYSQAIELNPSNAIYYGNRSLAYLRTECYGYALGDATRAIELDKKYIKGYYRRAASNMALGKFRAALRDYETVVKVKPHDKDAKMKYQECNKIVKQKAFERAIAGDEHKRSVVDSLDIESMTIEDEYSGPKLEDGKVTISFMKELMQWYKDQKKLHRKCAYQILVQVKEVLSKLSTLVETTLKETEKITVCGDTHGQFYDLLNIFELNGLPSETNPYIFNGDFVDRGSFSVEVILTLFGFKLLYPDHFHLLRGNHETDNMNQIYGFEGEVKAKYTAQMYELFSEVFEWLPLAQCINGKVLIMHGGLFSEDGVTLDDIRKIERNRQPPDSGPMCDLLWSDPQPQNGRSISKRGVSCQFGPDVTKAFLEENNLDYIIRSHEVKAEGYEVAHGGRCVTVFSAPNYCDQMGNKASYIHLQGSDLRPQFHQFTAVPHPNVKPMAYANTLLQLGMM | binding [6]: binds
binds | binds | binds | FNIP1, endogenous (protein, UniProt Q8TF40 1-1166) MAPTLFQKLFSKRTGLGAPGRDARDPDCGFSWPLPEFDPSQIRLIVYQDCERRGRNVLFDSSVKRRNEDISVSKLGSDAQVKVFGKCCQLKPGGDSSSSLDSSVTSSSDIKDQCLKYQGSRCSSDANMLGEMMFGSVAMSYKGSTLKIHQIRSPPQLMLSKVFTARTGSSICGSLNTLQDSLEFINQDNNTLKADNNTVINGLLGNIGLSQFCSPRRAFSEQGPLRLIRSASFFAVHSNPMDMPGRELNEDRDSGIARSASLSSLLITPFPSPNSSLTRSCASSYQRRWRRSQTTSLENGVFPRWSIEESFNLSDESCGPNPGIVRKKKIAIGVIFSLSKDEDENNKFNEFFFSHFPLFESHMNKLKSAIEQAMKMSRRSADASQRSLAYNRIVDALNEFRTTICNLYTMPRIGEPVWLTMMSGTPEKNHLCYRFMKEFTFLMENASKNQFLPALITAVLTNHLAWVPTVMPNGQPPIKIFLEKHSSQSVDMLAKTHPYNPLWAQLGDLYGAIGSPVRLARTVVVGKRQDMVQRLLYFLTYFIRCSELQETHLLENGEDEAIVMPGTVITTTLEKGEIEESEYVLVTMHRNKSSLLFKESEEIRTPNCNCKYCSHPLLGQNVENISQQEREDIQNSSKELLGISDECQMISPSDCQEENAVDVKQYRDKLRTCFDAKLETVVCTGSVPVDKCALSESGLESTEETWQSEKLLDSDSHTGKAMRSTGMVVEKKPPDKIVPASFSCEAAQTKVTFLIGDSMSPDSDTELRSQAVVDQITRHHTKPLKEERGAIDQHQETKQTTKDQSGESDTQNMVSEEPCELPCWNHSDPESMSLFDEYFNDDSIETRTIDDVPFKTSTDSKDHCCMLEFSKILCTKNNKQNNEFCKCIETVPQDSCKTCFPQQDQRDTLSILVPHGDKESSDKKIAVGTEWDIPRNESSDSALGDSESEDTGHDMTRQVSSYYGGEQEDWAEEDEIPFPGSKLIEVSAVQPNIANFGRSLLGGYCSSYVPDFVLQGIGSDERFRQCLMSDLSHAVQHPVLDEPIAEAVCIIADMDKWTVQVASSQRRVTDNKLGKEVLVSSLVSNLLHSTLQLYKHNLSPNFCVMHLEDRLQELYFKSKMLSEYLRGQMRVHVKELGVVLGIESSDLPLLAAVASTHSPYVAQILL | 
